Source: BigSolDB 2.1

NC(Cc1ccc(O)cc1)C(=O)O (racemic)
solubility (mole fraction)
Details | 278.15 K | 283.15 K | 288.15 K | 293.15 K | 298.15 K | 303.15 K | 308.15 K | 313.15 K | 318.15 K
in DMF | 3.1e-05 | 4.1e-05 | 5.2e-05 | 6.6e-05 | 8.3e-05 | 9.9e-05 | 0.000122 | 0.00014 | 0.000155
in water | 2.3e-05 | 2.7e-05 | 3.4e-05 | 3.8e-05 | 4.5e-05 | 5.6e-05 | 6.5e-05 | 7.4e-05 | 8.6e-05
